The record followed here is patent US20160369115A1, “POLARIZING PLATE COMPOSITION, POLARIZING PLATE PROTECTIVE FILM, POLARIZER, POLARIZING PLATE, LIQUID CRYSTAL DISPLAY DEVICE, AND COMPOUND USED IN THE LIQUID CRYSTAL DISPLAY DEVICE” (FUJIFILM Corporation, priority 2014, published 2016).

Series [1] can be described thus: Evaluation of durability of polarizing plate, additive in adhesive layer (Example 3). Particulars: added amount 10.0 per 100 parts by mass of the polyvinyl alcohol resin, film thickness 5 μm.
A short description of series [2]: Evaluation of durability of polarizing plate, additive in polarizer (Example 2). Particulars: added amount 1.0 per 100 parts by mass of polyvinyl alcohol resin, 410 nm.
Series [3] can be described thus: Bleed-out properties in polarizer (haze evaluation). Particulars: haze of polarizing plate; additive in polarizer, added amount 1.0 per 100 parts by mass of polyvinyl alcohol resin.

As for `O.O.O.O.O.O.O.O=S(=O)([O-])[O-].[Zn+2]` [ZnSO4•7H2O, reference compound], in series [1], the “Durability of polarizer: amount of change of degree of polarization (%) 60° C., 95%, 500 hours” value is “B (The amount of change of the degree of polarization before and after the elapse of time was equal to or greater than 2.0% and less than 3.0%.)”; the “Durability of polarizer: amount of change of degree of polarization (%) 60° C., 95%, 1,000 hours” value is “B (The amount of change of the degree of polarization before and after the elapse of time was equal to or greater than 4.0% and less than 6.0%.)”; the “Durability of polarizer: amount of change of degree of polarization (%) 80° C., Dry, 500 hours” value was “A (The amount of change of the degree of polarization before and alter the elapse of time was equal to or greater than 0.05% and less than 1.0%.)”; the “Durability of polarizer: amount of change of degree of polarization (%) 80° C., Dry, 1,000 hours” value is “A (The amount of change of the degree of polarization before and after the elapse of time was equal to or greater than 0.1% and less than 2.0%.)”. Moreover, in series [1] (410 nm), the “Durability of polarizer: amount of change of orthogonal transmittance (%) 60° C., 95%, 500 hours” value is “B (The amount of change of the orthogonal transmittance before and after the elapse of time was equal to or greater than 0.4% and less than 0.8%.)”; the “Durability of polarizer: amount of change of orthogonal transmittance (%) 60° C., 95%, 1,000 hours” value was “B (The amount of change of the orthogonal transmittance before and after the elapse of time was equal to or greater than 1.0% and less than 1.6%.)”; the “Durability of polarizer: amount of change of orthogonal transmittance (%) 80° C., Dry 500 hours” value is “A (The amount of change of the orthogonal transmittance before and after the elapse of time was equal to or greater than 0.05% and less than 0.1%.)”; the “Durability of polarizer: amount of change of orthogonal transmittance (%) 80° C., Dry, 1,000 hours” value was “A (The amount of change of the orthogonal transmittance before and after the elapse of time was equal to or greater than 0.1% and less than 0.3%.)”. In series [2], the “Durability of polarizer: amount of change of degree of polarization (%) 60° C., 95%, 500 hours” value is “B (The amount of change of the orthogonal transmittance before and after the elapse of time was equal to or greater than 2.0% and less than 3.0%.)”; the “Durability of polarizer: amount of change of degree of polarization (%) 60° C., 95%, 1,000 hours” value was “B (The amount of change of the degree of polarization before and after the elapse of time was equal to or greater than 4.0% and less than 6.0%.)”; the “Durability of polarizer: amount of change of degree of polarization (%) 80° C., Dry, 500 hours” value is “A (The amount of change of the degree of polarization before and after the elapse of time was equal to or greater than 0.05% and less than 1.0%.)”; the “Durability of polarizer: amount of change of degree of polarization (%) 80° C., Dry, 1,000 hours” value was “A (The amount of change of the degree of polarization before and after the elapse of time was equal to or greater than 0.1% and less than 2.0%.)”. Also, in series [2], the “Durability of polarizer: amount of change of orthogonal transmittance (%) 60° C., 95%, 500 hours” value was “B (The amount of change of the orthogonal transmittance before and after the elapse of time was equal to or greater than 0.4% and less than 0.8%.)”; the “Durability of polarizer: amount of change of orthogonal transmittance (%) 60° C., 95%, 1,000 hours” value was “B (The amount of change of the orthogonal transmittance before and after the elapse of time was equal to or greater than 1.0% and less than 1.6%.)”; the “Durability of polarizer: amount of change of orthogonal transmittance (%) 80° C., Dry 500 hours” value was “A (The amount of change of the orthogonal transmittance before and after the elapse of time was equal to or greater than 0.05% and less than 0.1%.)”; the “Durability of polarizer: amount of change of orthogonal transmittance (%) 80° C., Dry, 1,000 hours” value is “A (The amount of change of the orthogonal transmittance before and after the elapse of time was equal to or greater than 0.1% and less than 0.3%.)”. The Bleed out entry in series [3] is recorded as “A (The haze was less than 0.3%.)”.
